Measured values from PMC10123117.

Chains of the proteins cited; added tags and fusions are not shown.
UniProt Q6A4J8: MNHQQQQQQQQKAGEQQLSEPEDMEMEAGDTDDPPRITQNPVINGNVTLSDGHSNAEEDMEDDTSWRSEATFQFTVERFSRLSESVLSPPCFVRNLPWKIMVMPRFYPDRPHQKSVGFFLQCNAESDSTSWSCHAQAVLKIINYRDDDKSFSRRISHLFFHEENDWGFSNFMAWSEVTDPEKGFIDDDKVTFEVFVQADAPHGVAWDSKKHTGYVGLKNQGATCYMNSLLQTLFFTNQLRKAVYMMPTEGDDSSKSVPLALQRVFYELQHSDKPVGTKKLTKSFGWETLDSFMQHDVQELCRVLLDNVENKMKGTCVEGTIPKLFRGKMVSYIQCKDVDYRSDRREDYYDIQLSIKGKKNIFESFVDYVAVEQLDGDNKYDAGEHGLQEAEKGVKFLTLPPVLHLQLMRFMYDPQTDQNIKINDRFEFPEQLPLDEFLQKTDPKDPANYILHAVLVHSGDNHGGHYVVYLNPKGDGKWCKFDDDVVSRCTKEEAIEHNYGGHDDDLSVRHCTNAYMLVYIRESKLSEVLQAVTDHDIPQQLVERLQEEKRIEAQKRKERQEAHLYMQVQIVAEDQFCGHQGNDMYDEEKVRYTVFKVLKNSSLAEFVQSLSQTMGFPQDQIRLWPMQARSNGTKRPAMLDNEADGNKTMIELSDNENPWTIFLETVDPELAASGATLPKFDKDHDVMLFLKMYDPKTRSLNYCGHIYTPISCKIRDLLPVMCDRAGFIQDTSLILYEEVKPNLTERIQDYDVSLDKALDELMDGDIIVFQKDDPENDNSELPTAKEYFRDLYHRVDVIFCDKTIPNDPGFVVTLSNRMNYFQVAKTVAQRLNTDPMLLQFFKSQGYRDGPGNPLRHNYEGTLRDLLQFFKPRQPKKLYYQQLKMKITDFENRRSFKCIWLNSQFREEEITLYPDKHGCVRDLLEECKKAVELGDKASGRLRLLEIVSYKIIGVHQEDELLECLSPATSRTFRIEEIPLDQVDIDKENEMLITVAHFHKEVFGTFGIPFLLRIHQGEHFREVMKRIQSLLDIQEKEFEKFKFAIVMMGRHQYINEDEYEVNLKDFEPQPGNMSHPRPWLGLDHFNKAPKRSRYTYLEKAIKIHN

B1: PPM1G (protein, UniProt Q61074 1-542)
chain: MGAYLSQPNTVKCSGDGVGAPRLPLPYGFSAMQGWRVSMEDAHNCIPELDNETAMFSVYDGHGGEEVALYCAKYLPDIIKDQKAYKEGKLQKALQDAFLAIDAKLTTEEVIKELAQIAGRPTEDEDDKDKVADEDDVDNEEAALLHEEATMTIEELLTRYGQNCQKVPPHTKSGIGTGDEPGPQGLNGEAGPEDPSRETPSQENGPTAKGHTGFSSNSEHGTEAGQISEPGTATGEAGPSCSSASDKLPRVAKSKFFEDSEDESDEVEEEEDDSEECSEDEDGYSSEEAENEEDEDDTEEAEEDDDEEMMVPGMEGKEEPGSDSGTTAVVALIRGKQLIVANAGDSRCVVSEAGKALDMSYDHKPEDEVELARIKNAGGKVTMDGRVNGGLNLSRAIGDHFYKRNKNLPPQEQMISALPDIKVLTLTDDHEFMVIACDGIWNVMSSQEVVDFIQSKISQRDENGELRLLSSIVEELLDQCLAPDTSGDGTGCDNMTCIIICFKPRNTVELQAESGKRKLEEALSTEGAEDTGNSDKKKAKRD
B2: UHRF1 (protein, UniProt Q8VDF2 1-782)
chain: MWIQVRTMDGKETHTVNSLSRLTKVQELRKKIEEVFHVEPQLQRLFYRGKQMEDGHTLFDYDVRLNDTIQLLVRQSLALPLSTKERDSELSDSDSGYGVGHSESDKSSTHGEGAAEADDKTVWEDTDLGLYKVNEYVDVRDNIFGAWFEAQVVQVQKRALSEDEPCSSSAVKTSEDDIMYHVKYDDYPEHGVDIVKAKNVRARARTVIPWENLEVGQVVMANYNVDYPRKRGFWYDVEICRKRQTRTARELYGNIRLLNDSQLNNCRIMFVDEVLMIELPKERRPLIASPSQPPPALRNTGKSGPSCRFCKDDENKPCRKCACHVCGGREAPEKQLLCDECDMAFHLYCLKPPLTSVPPEPEWYCPSCRTDSSEVVQAGEKLKESKKKAKMASATSSSRRDWGKGMACVGRTTECTIVPANHFGPIPGVPVGTMWRFRVQVSESGVHRPHVAGIHGRSNDGAYSLVLAGGYEDDVDNGNYFTYTGSGGRDLSGNKRTAGQSSDQKLTNNNRALALNCHSPINEKGAEAEDWRQGKPVRVVRNMKGGKHSKYAPAEGNRYDGIYKVVKYWPERGKSGFLVWRYLLRRDDTEPEPWTREGKDRTRQLGLTMQYPEGYLEALANKEKSRKRPAKALEQGPSSSKTGKSKQKSTGPTLSSPRASKKSKLEPYTLSEQQANLIKEDKGNAKLWDDVLTSLQDGPYQIFLSKVKEAFQCICCQELVFRPVTTVCQHNVCKDCLDRSFRAQVFSCPACRFELDHSSPTRVNQPLQTILNQLFPGYGSGR
B3: PPIL4 (protein, UniProt Q9CXG3 1-492)
chain: MAVLLETTLGDVVIDLYTEERPRACLNFLKLCKIKYYNYCLIHNVQRDFIIQTGDPTGTGRGGESIFGQLYGDQASFFEAEKVPRIKHKKKGTVSMVNNGSDQHGSQFLITTGENLDYLDGVHTVFGEVTEGMDIVKKINETFVDKDFVPYQDIRINHTVILDDPFDDPPDLLIPDRSPEPTKEQLDSGRIGADEEIDDFKGRSAEEVEEIKAEKEAKTQAILLEMVGDLPDADIKPPENVLFVCKLNPVTTDEDLEIIFSRFGPIRSCEVIRDWKTGESLCYAFIEFEKEEDCEKAFFKMDNVLIDDRRIHVDFSQSVAKVKWKGKGGKYTKSDFKEYEKEQDKPANLVLKEKVKPKQDAKYDLILDEQGEDSKSSHSHTSKKHKKKTRHCSEEKEDEEYMPIKNPNQDIYREMGFGHYEEEESCWEKQKNEKRDRRQNRSRSRSRERDGHYSNSHKPKYQTEPYERERSRKRDRSRSPKKSKAKEKSKYR
B4: DDX24 (protein, UniProt Q9ESV0 1-857)
chain: MKVKETNSKPKLASRGTFQRKGIKIVGKWKQVTIDPNLFADGQMDDLVCFEELTDYRLVKNPSRLFSSEETKKRKAQAVSEEEEEEEGQSSSPKKKIKLKKQRDAARAAEGAAAQNEYEVKASEPEAQGEVTACSDQKVGGAKSESLAQAAPRKKKNKGKKKLDTFQSTSPKLPKKSKKTWMAEVHDQKADVSAWRDLFVPKAVLRALSFLGFSAPTPIQALTLAPAIRDKLDILGAAETGSGKTLAFAIPMIHSVLQWHKMKAPPIPRSTGMPPREMRFGATAHLGSPCKDRTESGVLPEEARIETEAQPSDSGVQATPETSASASAQTLLVCDDDAGEGPSSLEEKPVPKQNEDGEEKFDAEQAGKLKQELCDQIAIYKVHPRRPLLGLVLTPTRELAIQVRQHIDAVAKFTGINTAILVGGMSTQKQQRMLNRHPEIVIATPGRLWELVKEKHPHLSNLRQLRCLVIDEADRMVEKGHFAELSQLLEMLNDSQYNPSRQTLVFSATLTLVHQAPARILHKKHVKKMDKTDKLDLLMQKVGMRGKPKVIDLTRNEGTVETLTETKIHCETDEKDLYLYYFLMQYPGRSLVFANSISCIKRLSGLLKVLDVMPLTLHACMHQKQRLRNLEQFARLQDCVLLATDVAARGLDIPKVQHVIHYQVPRTSEIYIHRSGRTARAASEGLSLMLIGPEDVINFKKIYKTLQKDEDIPLFPVQSKYMDVVKERIRLARQIEKAEYRNFQACLHNSWIEQAAAALEIELEEEMYKGGKADQQEERRRQKQMKMLKQELRHLLSQPLFQENLKTRYPTQSGRPPQPVLASRNIESALSCLSRQKRRRKKPKEPRAPPQPGSSTS
B5: DHX40 (protein, UniProt Q6PE54 1-779)
chain: MSRFPAVAGRAPRRQEEGERPIELQEERPSAVRIADREEKGCTSQEGGTTPTFPIQKQRKKLIQAVRDNSFLIVTGNTGSGKTTQLPKYLYEAGFSQHGMIGVTQPRKVAAISVAQRVAEEMKCTLGSKVGYQVRFDDCSSKETAIKYMTDGCLLKHILGDPNLSKFSVIILDEAHERTLTTDILFGLLKKLFQDKSPNRKEHLKVVVMSATMELAKLSAFFGNCPIFDIPGRLYPVREKFCNLIGPRDRENTAYIQAIVKVTMDIHLNEMAGDILVFLTGQFEIEKSCELLFQMAESVDYDYDVQDTTLDGLLILPCYGSMTTDQQRRIFLPPPPGIRKCVISTNISATSLTIDGIRYVVDGGFVKQLNHNPRLGLDILEVVPISKSEALQRSGRAGRTASGKCFRIYSKEFWSQCMPDHVIPEIKRTSLTSVVLTLKCLAIHDVIRFPYLDPPNERLILEALKQLYQCDAIDRSGHVTRLGLSMVEFPLPPHLTCAVIRAASLDCEDLLLPIAAMLSVENVFIRPVDPEYQKEAEQRHRELAAKAGGFNDFATLAVIFEQCKSSGAPASWCQKHWIHWRCLFSAFRVEAQLRELIRKLKQQSDFPRETFEGPKHEVLRRCLCAGYFKNVARRSVGRTFCTMDGRGSPVHIHPSSALHEQETKLEWIIFHEVLVTTKVYARIVCPIRYEWVRDLLPKLHELNAHDLSSVARREMREDARRKWTNKENVKQLKDGISKEVLKKMQRRNDDKSISDARARFLERKQQRIQDHSDTLKETG
B6: CCDC55 (protein, UniProt Q5NCR9 1-542)
chain: MAIPGRQYGLILPKKTQPLHRVLQKPSVFGSDSDDDETSVSESLQREAAKKQAMKQTKLEIQKALAEDSTVYEYDSVYDEMQKKKEENNPKLLPGKDRKPKYIHNLLKAVEIRKKEQEKRMEKKIQREREMENGEFDDKEAFVTSAYKKKLEERAEEEEREKRAAALEAHLDVTKQKDLSGFYRHLLNQAVGEEAAPKSSFREARTVIKEEKLRGYPDETNSESRPPQQSCVLQRGAQEAEENPDADREFDDESSEDGEKRDHKVKSRGEDTGASMKHPKHHKNRAHSRSSSEERGLGTKHHSRGSQSRGHEHQDRQSRDQESCHKDRSHREEKSSHRHREASHKDHYWKKHEQEDKLKGREQEERQDREGKREKYSSREQERDRQRNDHDRYSEKEKKRKEKEEHTKARRERCEDSGKHREREKPEGHGQSSERHRDRRESSPRSRPKDDLDQERSSKARNTEKDKGEQGKPSHSETSLATKHRLAEERPEKGSEQERPPEAVSKFAKRSNEETVMSARDRYLARQMARINAKTYIEKEDD
B7: FBXO38 (protein, UniProt Q8BMI0 1-1194)
chain: MGPRKKSAKVCVMDSEVAEEMTADEEKDYMNQLSHEVLCHIFRYLPLQDIMCMECLSRKLKEAVTLYLRVVRVVDLCAGRWWEYMPSGFTDSSFLTLLKKMPDVEQLYGLHPRYLERRRVRGQEAFSIPGVLEALQACPNLVGVETSHLELVESIWTYMPHVHILGKFRNRNGAFPIPPENKLKIPIGAKIQTLHLVGVNVPEIPCIPMLRHLYMKWVRLTKPQPFKDFLCISLRTFVMRNCAGPTNSLKYVPLVTGLASARNLEHLEMVRVPFLGGLIQHVVEDSWRSGGFRNLHTIVLGACKNALEVDLGYLIITAARRLHEVRIQPSLTKDGVFSALKMAELEFPQFETLHLGYVDEFLLQSRMANADLVKYGLADVVENPGIITDIGMKAVNEVFSCIKYLAIYNCPHLHNPYNWISDHSRWMRLVDINLVRCHALKLDSFGQFVELLPSLEFISLDQMFREPPKGCARVGLSAGTGIGVSSALVSNQNSNNDNDNNAPNNNANLHDNNHHHPDDSDDDNDFRPDLQAGEAQFAADALNEMEDMVQEDGELVAESGNGMPAHNREVLPVDADEEQAGPSGLQRVVKPTPIADHDSESDDEEDSLELQEVWAPKNGTRRYSEREEKTGDSGQSRETAVSGKGKTPLRKRCNNSHQTGQAKPFPLEESSCEKGCQVTSEQIKADMKAARDVSEKKKSKDVYPSCSSSSSSTAASTAGNASSPSTASQSPDFARTVTSSGSSEPSPPEVDVSRQCVCSPGGSEDSEAMEEGDAESSVCPRCCCLRPQESQRRTGRCSDEERPSTSRACVVNGADGTRSAFSFRTLPQGGSSGPAHDERTNGSGCGATGEDRRGSSQPESCDVQSNEDYPRRPLTRARSRLSHVPLISESEVAKTKPCHAMKRKRTADKSTSTSDPVIEDDHVQVLVLKSKNLVGVTMTNCGITDLVLKDCPKMMFIHATRCRVLKHLKVENAPIVNRFDYAQCKKLNMDQVLDQILRMPPERNRIIYLRPMQQVDTLTLEQKLFSGPYPYHICIIHEFSNPPNVRNKVRIRNWMDTIANINQELIKYEFFLEATRTEEDLKKYPKYPWGREIYTLEGVVDGAPYSMISDFPWLRSLRTAEPNSFARYDFEDDEESTIYAPRRKGQLSADICMETIGEEISEMRQMKRGIFQRVVAIFIHYCDVNGEPVEDDYI
B8: PCGF6 (protein, UniProt Q99NA9 1-353)
chain: MDEAETDATENKRASEAKRASAMPPPPPPPPPISPPALIPAPAAGEEGPASLGQAGAAGCSRSRPPALEPERSLGRLRGRFEDYDEELEEEEEMEEEEEEEEEMSHFSLRLESGRADSEDEEERLINLVELTPYILCSICKGYLIDATTITECLHTFCKSCIVRHFYYSNRCPKCNIVVHQTQPLYNIRLDRQLQDIVYKLVINLEEREKKQMHDFYKERGLEVPKPAAPQPVPSSKGKTKKVLESVFRIPPELDMSLLLEFIGANEDTGHFKPLEKKFVRVSGEATIGHVEKFLRRKMGLDPACQVDIICGDHLLERYQTLREIRRAIGDTAMQDGLLVLHYGLVVSPLKIT

What follows are binders tested against USP7 (mouse (endogenous in E14TG2a ES cells)) (UniProt Q6A4J8) (assay: affinity purification with mass spectrometry; anti-USP7 immunoprecipitation of endogenous USP7 from WT mESC lysate, Usp7-KO ES cells as control, three independent experiments; nanoLC-MS/MS, spectral counts; enriched: fold change >4 and adjusted P <0.05).
In the case of B1, the binding is reported as “binds”. In the case of B2, the binding is reported as “binds”. With B3 the binding was “binds”. For B4, the binding was “binds”. B5 was tested, and the binding was “binds”. With B6 the binding was “binds”. B7 was tested, and the binding was “binds”. For B8, the binding was “binds”.

These are yes or no findings as the source states them, for the method shown. In cells and extracts the contact can be indirect. Here binding means that the protein was enriched with, or labelled near, the bait; the list need not be complete.
